Some of the results follow.
Assays:
Test in all cases: log2 fold change, soluble protein after heating vs DMSO (PISA); higher = thermal stabilisation; K562 lysate, 10 uM; active = over 0.2 and 3.5 SD of the protein, either way, in both replicates (recomputed)
dasatinib = compound: Cc1nc(Nc2ncc(C(=O)Nc3c(C)cccc3Cl)s2)cc(N2CCN(CCO)CC2)n1 [dasatinib]
How it was run: (§1)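 Thermal stability, expressed as log-two fold change relative to solvent controls, is given from duplicates. Crude K562 extract in PBS pH 7.4 with 1 mM MgCl2, at 1 mg/mL protein, was treated with 10 μM compound for 30 min and heated in aliquots for 3 min across 48°C-58°C. After pooling, adjustment to 0.5% NP-40 at 4°C and centrifugation at 21,000xg for 90 min, supernatant protein was measured by TMTpro 16plex LC-MS/MS with channel sums equalised.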

The chains behind the UniProt entries cited, without tags or fusion partners. Where a name states a change or a piece, a line headed by the entry shows the natural chain unless it says otherwise.
UniProt Q9P086: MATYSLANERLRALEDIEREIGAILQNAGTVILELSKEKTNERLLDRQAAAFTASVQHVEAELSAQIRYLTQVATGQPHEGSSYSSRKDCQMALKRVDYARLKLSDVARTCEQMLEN
UniProt Q8IX19: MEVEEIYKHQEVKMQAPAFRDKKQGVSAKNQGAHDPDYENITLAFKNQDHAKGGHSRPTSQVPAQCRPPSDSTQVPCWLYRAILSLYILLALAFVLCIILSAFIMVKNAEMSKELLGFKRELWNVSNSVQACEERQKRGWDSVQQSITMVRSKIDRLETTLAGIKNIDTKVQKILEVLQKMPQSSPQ
UniProt P55083: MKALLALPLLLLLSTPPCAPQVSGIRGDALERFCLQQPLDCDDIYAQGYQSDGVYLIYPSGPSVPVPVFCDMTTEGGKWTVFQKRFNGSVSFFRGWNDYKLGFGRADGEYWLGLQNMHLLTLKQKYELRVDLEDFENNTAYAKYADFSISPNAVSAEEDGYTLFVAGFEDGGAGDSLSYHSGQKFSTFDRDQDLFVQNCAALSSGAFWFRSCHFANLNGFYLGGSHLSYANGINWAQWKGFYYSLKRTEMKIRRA
UniProt Q9H1U4: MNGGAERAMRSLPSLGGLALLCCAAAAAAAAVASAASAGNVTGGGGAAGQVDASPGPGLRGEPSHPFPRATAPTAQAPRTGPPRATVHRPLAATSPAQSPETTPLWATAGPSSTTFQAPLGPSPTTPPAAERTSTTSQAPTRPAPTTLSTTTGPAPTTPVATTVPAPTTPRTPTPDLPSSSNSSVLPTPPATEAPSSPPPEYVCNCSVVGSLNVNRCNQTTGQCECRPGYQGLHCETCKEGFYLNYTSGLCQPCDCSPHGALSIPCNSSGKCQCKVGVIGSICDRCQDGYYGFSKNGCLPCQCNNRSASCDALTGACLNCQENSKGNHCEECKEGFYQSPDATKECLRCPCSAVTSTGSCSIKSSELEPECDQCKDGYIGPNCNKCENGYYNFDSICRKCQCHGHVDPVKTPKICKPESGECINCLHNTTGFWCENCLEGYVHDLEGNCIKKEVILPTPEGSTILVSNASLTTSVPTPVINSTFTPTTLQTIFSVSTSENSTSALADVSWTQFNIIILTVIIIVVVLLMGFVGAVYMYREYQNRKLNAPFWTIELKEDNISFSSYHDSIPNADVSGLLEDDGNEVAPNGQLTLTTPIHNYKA
UniProt Q96DN6: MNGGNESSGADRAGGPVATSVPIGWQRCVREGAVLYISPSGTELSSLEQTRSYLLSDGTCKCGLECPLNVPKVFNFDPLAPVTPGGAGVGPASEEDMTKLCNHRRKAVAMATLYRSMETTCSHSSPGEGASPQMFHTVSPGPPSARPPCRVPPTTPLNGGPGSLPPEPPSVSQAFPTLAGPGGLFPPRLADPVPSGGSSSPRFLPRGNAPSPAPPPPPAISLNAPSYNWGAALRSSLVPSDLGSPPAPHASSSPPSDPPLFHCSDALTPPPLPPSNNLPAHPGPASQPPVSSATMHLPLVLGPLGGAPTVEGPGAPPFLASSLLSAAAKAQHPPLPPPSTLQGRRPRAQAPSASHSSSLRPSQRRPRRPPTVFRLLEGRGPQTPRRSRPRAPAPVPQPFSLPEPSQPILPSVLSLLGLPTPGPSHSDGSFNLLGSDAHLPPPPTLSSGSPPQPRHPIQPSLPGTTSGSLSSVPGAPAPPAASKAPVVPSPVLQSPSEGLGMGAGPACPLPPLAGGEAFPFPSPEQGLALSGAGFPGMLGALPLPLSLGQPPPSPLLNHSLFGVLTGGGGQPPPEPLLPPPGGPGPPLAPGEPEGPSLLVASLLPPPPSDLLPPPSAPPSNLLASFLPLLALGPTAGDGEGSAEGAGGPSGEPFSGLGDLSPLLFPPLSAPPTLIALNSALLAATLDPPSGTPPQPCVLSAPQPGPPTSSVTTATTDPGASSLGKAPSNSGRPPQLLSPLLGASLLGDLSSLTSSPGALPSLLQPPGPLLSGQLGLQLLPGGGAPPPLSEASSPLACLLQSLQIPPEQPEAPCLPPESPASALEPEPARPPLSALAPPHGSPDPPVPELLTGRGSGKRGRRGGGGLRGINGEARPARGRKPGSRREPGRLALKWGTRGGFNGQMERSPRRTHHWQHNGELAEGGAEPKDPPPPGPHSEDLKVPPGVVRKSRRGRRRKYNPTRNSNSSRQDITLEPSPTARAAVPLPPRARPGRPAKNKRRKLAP
UniProt A6NJ78: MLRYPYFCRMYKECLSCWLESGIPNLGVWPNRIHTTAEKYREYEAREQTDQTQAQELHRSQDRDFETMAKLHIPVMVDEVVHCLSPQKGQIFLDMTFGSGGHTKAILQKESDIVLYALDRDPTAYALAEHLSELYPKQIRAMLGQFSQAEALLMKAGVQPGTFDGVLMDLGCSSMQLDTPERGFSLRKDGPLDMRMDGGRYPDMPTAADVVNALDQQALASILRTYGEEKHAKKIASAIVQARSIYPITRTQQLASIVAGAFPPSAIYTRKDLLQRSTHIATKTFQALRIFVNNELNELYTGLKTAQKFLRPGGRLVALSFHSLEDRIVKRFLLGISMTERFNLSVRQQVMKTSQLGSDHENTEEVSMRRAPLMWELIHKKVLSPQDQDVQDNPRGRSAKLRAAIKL
UniProt Q14703: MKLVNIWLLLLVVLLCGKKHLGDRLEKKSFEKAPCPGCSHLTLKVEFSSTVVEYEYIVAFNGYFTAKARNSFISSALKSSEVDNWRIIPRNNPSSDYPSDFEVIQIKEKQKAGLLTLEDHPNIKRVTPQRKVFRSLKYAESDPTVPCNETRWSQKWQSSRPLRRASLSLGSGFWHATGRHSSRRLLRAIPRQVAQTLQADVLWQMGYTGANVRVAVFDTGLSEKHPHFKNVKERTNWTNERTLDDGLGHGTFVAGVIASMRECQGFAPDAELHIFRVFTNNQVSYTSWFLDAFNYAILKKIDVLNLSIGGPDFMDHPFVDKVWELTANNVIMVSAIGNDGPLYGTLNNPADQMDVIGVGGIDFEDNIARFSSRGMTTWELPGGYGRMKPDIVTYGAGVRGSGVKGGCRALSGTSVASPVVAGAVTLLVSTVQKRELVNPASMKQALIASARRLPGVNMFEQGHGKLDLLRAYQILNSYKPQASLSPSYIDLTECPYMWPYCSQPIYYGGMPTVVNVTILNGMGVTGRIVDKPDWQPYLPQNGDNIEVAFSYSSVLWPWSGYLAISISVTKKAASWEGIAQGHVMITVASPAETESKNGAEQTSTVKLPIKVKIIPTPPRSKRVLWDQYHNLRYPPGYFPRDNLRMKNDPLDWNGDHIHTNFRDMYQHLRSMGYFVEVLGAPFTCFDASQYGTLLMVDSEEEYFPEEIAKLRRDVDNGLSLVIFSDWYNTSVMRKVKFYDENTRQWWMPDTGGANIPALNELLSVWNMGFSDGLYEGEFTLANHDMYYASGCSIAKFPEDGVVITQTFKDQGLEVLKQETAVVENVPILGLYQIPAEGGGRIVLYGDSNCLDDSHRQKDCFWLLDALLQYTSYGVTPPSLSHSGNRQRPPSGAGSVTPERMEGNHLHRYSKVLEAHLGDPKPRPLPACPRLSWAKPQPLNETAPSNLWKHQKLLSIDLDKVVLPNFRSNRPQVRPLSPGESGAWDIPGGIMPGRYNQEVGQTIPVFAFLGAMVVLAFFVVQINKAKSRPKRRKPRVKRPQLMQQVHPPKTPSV
UniProt Q7Z7M0: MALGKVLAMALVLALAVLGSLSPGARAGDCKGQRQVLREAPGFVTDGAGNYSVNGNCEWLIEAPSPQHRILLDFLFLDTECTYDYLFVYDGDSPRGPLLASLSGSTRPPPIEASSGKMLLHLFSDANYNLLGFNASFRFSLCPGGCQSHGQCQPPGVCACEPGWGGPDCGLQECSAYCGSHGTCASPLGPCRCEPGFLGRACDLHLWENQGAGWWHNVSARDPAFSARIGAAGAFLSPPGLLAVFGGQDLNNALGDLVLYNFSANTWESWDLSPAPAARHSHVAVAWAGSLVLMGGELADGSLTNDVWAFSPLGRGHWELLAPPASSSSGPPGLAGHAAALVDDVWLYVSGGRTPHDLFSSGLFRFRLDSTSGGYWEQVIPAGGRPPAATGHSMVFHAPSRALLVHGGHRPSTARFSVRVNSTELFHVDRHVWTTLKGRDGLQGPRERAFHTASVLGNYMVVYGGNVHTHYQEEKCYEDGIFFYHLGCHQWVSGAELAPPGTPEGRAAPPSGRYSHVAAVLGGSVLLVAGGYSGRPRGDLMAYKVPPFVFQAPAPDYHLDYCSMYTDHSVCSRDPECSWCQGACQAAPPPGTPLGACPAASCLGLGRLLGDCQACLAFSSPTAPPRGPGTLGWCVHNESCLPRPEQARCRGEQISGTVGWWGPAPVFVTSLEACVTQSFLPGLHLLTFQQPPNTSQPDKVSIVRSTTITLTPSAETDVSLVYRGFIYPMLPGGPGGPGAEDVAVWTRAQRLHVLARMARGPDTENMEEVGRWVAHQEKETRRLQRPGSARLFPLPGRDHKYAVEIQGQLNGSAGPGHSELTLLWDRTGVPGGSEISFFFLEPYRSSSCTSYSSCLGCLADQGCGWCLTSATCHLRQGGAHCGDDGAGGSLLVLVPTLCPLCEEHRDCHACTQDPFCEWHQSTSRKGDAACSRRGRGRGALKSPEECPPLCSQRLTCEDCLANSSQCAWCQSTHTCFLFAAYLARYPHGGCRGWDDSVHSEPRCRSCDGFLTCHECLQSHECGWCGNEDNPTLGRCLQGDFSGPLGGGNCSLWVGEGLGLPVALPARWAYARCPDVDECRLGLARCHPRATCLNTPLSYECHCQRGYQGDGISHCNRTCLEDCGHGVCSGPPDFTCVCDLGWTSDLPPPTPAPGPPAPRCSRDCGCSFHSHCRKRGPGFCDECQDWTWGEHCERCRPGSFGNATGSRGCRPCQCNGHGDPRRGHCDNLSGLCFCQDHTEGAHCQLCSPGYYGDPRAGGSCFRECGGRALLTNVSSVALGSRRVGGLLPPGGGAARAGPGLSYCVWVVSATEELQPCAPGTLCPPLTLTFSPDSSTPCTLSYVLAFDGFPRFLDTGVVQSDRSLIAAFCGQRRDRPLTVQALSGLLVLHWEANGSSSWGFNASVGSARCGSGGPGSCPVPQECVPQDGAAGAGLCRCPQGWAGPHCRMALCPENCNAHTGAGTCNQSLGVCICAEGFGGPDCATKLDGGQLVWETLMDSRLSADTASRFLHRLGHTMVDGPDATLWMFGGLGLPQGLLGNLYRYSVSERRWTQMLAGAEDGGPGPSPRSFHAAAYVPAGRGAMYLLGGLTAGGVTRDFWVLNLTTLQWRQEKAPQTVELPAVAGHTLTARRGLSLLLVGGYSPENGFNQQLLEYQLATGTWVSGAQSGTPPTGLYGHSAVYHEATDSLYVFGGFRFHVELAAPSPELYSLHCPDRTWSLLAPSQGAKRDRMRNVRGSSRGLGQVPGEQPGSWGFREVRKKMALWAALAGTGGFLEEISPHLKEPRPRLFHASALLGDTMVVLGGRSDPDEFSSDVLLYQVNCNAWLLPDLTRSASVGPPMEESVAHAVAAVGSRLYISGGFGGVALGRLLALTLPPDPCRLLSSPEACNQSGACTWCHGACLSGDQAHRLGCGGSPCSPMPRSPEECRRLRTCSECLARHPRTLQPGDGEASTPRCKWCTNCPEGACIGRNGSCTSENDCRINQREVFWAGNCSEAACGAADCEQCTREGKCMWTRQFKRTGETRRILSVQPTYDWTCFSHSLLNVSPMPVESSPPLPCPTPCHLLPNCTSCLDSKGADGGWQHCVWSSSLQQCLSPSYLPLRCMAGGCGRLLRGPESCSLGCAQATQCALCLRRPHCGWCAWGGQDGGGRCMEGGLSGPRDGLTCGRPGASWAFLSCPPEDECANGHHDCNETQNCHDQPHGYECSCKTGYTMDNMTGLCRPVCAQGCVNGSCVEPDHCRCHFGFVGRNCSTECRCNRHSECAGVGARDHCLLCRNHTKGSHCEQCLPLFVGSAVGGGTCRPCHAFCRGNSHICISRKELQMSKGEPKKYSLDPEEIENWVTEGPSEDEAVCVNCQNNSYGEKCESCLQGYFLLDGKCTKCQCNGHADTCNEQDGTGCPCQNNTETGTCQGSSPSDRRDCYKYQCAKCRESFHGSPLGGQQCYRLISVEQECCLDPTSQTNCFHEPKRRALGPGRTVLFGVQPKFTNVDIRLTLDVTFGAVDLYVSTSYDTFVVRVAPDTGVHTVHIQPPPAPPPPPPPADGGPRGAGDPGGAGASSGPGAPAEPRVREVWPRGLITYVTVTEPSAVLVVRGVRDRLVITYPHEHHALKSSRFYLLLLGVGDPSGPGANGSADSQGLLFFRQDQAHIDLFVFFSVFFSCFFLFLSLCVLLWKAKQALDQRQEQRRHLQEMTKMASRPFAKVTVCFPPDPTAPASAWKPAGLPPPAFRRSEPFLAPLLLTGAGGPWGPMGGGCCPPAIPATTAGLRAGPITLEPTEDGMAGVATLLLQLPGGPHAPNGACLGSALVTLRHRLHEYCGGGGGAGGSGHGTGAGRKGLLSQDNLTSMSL

[1] = compound: Cn1cc(-c2ccc3c(c2)CCN3C(=O)Cc2cccc(C(F)(F)F)c2)c2c(N)ncnc21
How it was run: as §1

quisinostat = compound: Cn1cc(CNCC2CCN(c3ncc(C(=O)NO)cn3)CC2)c2ccccc21 [quisinostat]
How it was run: as §1

[2] = compound: NC(=O)Nc1cc(-c2cccc(F)c2)sc1C(=O)N[C@H]1CCCNC1
How it was run: as §1

[3] = compound: NC1(c2ccc(-c3nc4ccn5c(=O)[nH]nc5c4cc3-c3ccccc3)cc2)CCC1
How it was run: as §1

[4] = compound: NCC(=O)Nc1ccc(-n2nc(C(F)(F)F)cc2-c2ccc3c(ccc4ccccc43)c2)cc1
How it was run: as §1

vorinostat = compound: O=C(CCCCCCC(=O)Nc1ccccc1)NO [vorinostat]
How it was run: as §1

silmitasertib = compound: O=C(O)c1ccc2c(c1)nc(Nc1cccc(Cl)c1)c1ccncc12 [silmitasertib]
How it was run: as §1

[5] = compound: O=C1NC(=O)C(c2cnc3ccccn23)=C1c1cn2c3c(cc(F)cc13)CN(C(=O)N1CCCCC1)CC2
How it was run: as §1

[6] = compound: NC(=O)c1cnc(N[C@@H]2CCCC[C@@H]2N)nc1Nc1cccc(-n2nccn2)c1
How it was run: as §1

entospletinib = compound: c1cn2cc(-c3ccc4cn[nH]c4c3)nc(Nc3ccc(N4CCOCC4)cc3)c2n1 [entospletinib]
How it was run: as §1

nilotinib = compound: Cc1cn(-c2cc(NC(=O)c3ccc(C)c(Nc4nccc(-c5cccnc5)n4)c3)cc(C(F)(F)F)c2)cn1 [nilotinib]
How it was run: as §1

[7] = compound: Cc1nc(Nc2n[nH]c3c2CN(C(=O)N[C@H](CN(C)C)c2ccccc2)C3(C)C)c2sccc2n1
How it was run: as §1

[8] = compound: Cc1ncc(-c2ccnc(Nc3ccc(S(C)(=O)=O)cc3)n2)n1C(C)C
How it was run: as §1

tipifarnib = compound: Cn1cncc1[C@@](N)(c1ccc(Cl)cc1)c1ccc2c(c1)c(-c1cccc(Cl)c1)cc(=O)n2C [tipifarnib]
How it was run: as §1

Measured: log2 fold change

MED11 (UniProt Q9P086)
inactive: dasatinib -0.149 | [1] 0.11 | quisinostat -0.042 | [2] 0.084 | [3] 0.095 | [4] -0.292 | vorinostat -0.202 | silmitasertib 0.057 | [5] 0.111

MCEMP1 (UniProt Q8IX19)
inactive: dasatinib 0.166 | [1] 0.064 | quisinostat 0.023 | [2] 0.056 | [6] 0.109 | [5] -0.004

MFAP4 isoform 2 (UniProt P55083)
inactive: entospletinib -0.008

MEGF9 (UniProt Q9H1U4)
inactive: dasatinib -0.03 | [1] -0.046 | [3] 0.181 | [4] 0.109 | vorinostat 0.075 | silmitasertib -0.105 | entospletinib 0.171

MED29 (UniProt Q9NX70)
inactive: dasatinib -0.1 | [1] 0.05 | quisinostat 0.071 | [2] -0.059 | [3] 0.061 | vorinostat 0.024 | silmitasertib -0.012 | [5] 0.015

Two successive records from above:
MEGF9 (UniProt Q9H1U4)
inactive: dasatinib -0.03 | [1] -0.046 | [3] 0.181 | [4] 0.109 | vorinostat 0.075 | silmitasertib -0.105 | entospletinib 0.171

MED29 (UniProt Q9NX70)
inactive: dasatinib -0.1 | [1] 0.05 | quisinostat 0.071 | [2] -0.059 | [3] 0.061 | vorinostat 0.024 | silmitasertib -0.012 | [5] 0.015

(continued)

MED19 (UniProt A0JLT2)
inactive: dasatinib 0.066 | [1] 0.027 | quisinostat -0.035 | [2] -0.009 | [6] -0.005 | [4] 0.035 | [5] 0

MED24 (UniProt F5H5K2)
inactive: nilotinib 0.047 | [7] 0.122 | [8] 0.11 | tipifarnib 0.056

Retrieved one by one from the list above, two records:
MFAP4 isoform 2 (UniProt P55083)
inactive: entospletinib -0.008

MED11 (UniProt Q9P086)
inactive: dasatinib -0.149 | [1] 0.11 | quisinostat -0.042 | [2] 0.084 | [3] 0.095 | [4] -0.292 | vorinostat -0.202 | silmitasertib 0.057 | [5] 0.111

Following part.

MCFD2 isoform 2 (UniProt Q8NI22)
inactive: [6] -0.158

MCPH1 (UniProt Q8NEM0)
inactive: quisinostat 0.007 | [2] -0.056 | [5] 0.056

MDM2 isoform 11 (UniProt Q00987)
inactive: quisinostat -0.2 | [2] -0.077 | [3] -0.195 | [4] -0.137 | vorinostat -0.062 | silmitasertib 0 | [5] -0.039

MBLAC1 (UniProt A4D2B0)
inactive: [6] -0.009 | [3] 0.136 | [4] -0.183 | vorinostat -0.187 | silmitasertib 0.102 | entospletinib -0.065

METTL2B (UniProt Q6P1Q9)
inactive: dasatinib -0.293 | [1] -0.095 | quisinostat 0.033 | [2] -0.076 | [6] -0.018 | [5] -0.166

MFAP3 (UniProt P55082)
inactive: dasatinib 0.074 | [1] -0.064 | quisinostat 0.182 | [2] -0.012 | [3] 0.183 | [4] -0.048 | vorinostat -0.075 | silmitasertib -0.058 | [5] -0.091

MAU2 (UniProt Q9Y6X3)
inactive: quisinostat -0.057 | [2] 0.036 | [6] 0.018 | [3] 0.113 | [4] -0.007 | vorinostat -0.06 | silmitasertib 0.026 | [5] 0.035 | entospletinib 0.03

MBD6 (UniProt Q96DN6)
inactive: dasatinib 0.035 | [1] 0.007

MEIS1 (UniProt O00470)
inactive: quisinostat 0.009 | [2] 0.001 | [5] 0.108 | entospletinib 0.121

METTL7B (UniProt Q6UX53)
inactive: [3] -0.005 | vorinostat 0.208 | silmitasertib -0.163

MDM4 (UniProt O15151)
inactive: dasatinib -0.12 | [1] -0.145 | quisinostat 0.157 | [2] -0.005 | [4] 0.329 | [5] 0.025 | entospletinib -0.417

METTL15 (UniProt A6NJ78)
inactive: nilotinib 0.09 | [7] -0.255 | [8] -0.19 | quisinostat -0.08 | tipifarnib -0.069 | [2] -0.009 | [4] -0.045 | [5] 0.06

MED6 (UniProt O75586)
inactive: dasatinib -0.112 | [1] -0.119 | quisinostat -0.213 | [2] -0.085 | [6] 0.051 | [4] -0.027 | [5] -0.08 | entospletinib -0.159

MFSD6 (UniProt Q6ZSS7)
inactive: dasatinib -0.012 | [1] 0.239 | [3] -0.18 | vorinostat 0.285 | silmitasertib -0.124 | entospletinib -0.11

MATK isoform 2 (UniProt P42679)
inactive: nilotinib -0.03 | [7] -0.086 | [8] -0.036 | tipifarnib 0.045 | [6] -0.003

MCRS1 isoform 2 (UniProt Q96EZ8)
inactive: [4] 0.021

MFSD11 (UniProt O43934)
inactive: [6] 0.021 | [3] -0.063 | vorinostat 0.192 | silmitasertib -0.013

MFSD9 (UniProt Q8NBP5)
inactive: dasatinib 0.017 | [1] -0.06

METTL5 (UniProt H0YFV5)
inactive: quisinostat -0.283 | [2] 0.134 | [6] 0.088 | [3] -0.04 | vorinostat 0.121 | silmitasertib -0.078 | [5] 0.307

METTL17 isoform 3 (UniProt Q9H7H0)
inactive: nilotinib 0.077 | [7] -0.045 | [8] 0.019 | tipifarnib -0.043 | entospletinib -0.05

MBTPS1 (UniProt Q14703)
inactive: dasatinib 0.106 | [1] -0.101 | quisinostat -0.053 | [2] 0.026 | [3] -0.045 | [4] 0.17 | vorinostat 0.116 | silmitasertib -0.023 | [5] -0.044 | entospletinib 0.094

MCTS2P, A0A3B3IRV3
inactive: dasatinib 0.188 | [1] -0.196 | quisinostat 0.024 | [2] 0.048 | [6] 0.122 | [3] 0.036 | vorinostat -0.118 | silmitasertib -0.103 | [5] 0.072

MEGF8 (UniProt Q7Z7M0)
inactive: dasatinib -0.059 | [1] -0.003 | quisinostat 0.047 | [2] -0.073 | [3] -0.073 | vorinostat 0.05 | silmitasertib -0.062 | [5] 0.02 | entospletinib -0.048

METTL6 (UniProt Q8TCB7)
inactive: dasatinib 0.006 | [1] -0.313 | quisinostat -0.135 | [2] -0.031 | [6] -0.004 | [4] 0.054 | [5] -0.043 | entospletinib 0.026

MELTF (UniProt P08582)
inactive: quisinostat 0.046 | [2] -0.134 | [3] 0.002 | [4] 0.025 | vorinostat 0.033 | silmitasertib -0.079 | [5] -0.33 | entospletinib -0.013

METTL25 (UniProt Q8N6Q8)
inactive: dasatinib 0.078 | [1] 0.036 | [6] 0.196 | [4] -0.145 | entospletinib 0.017

METTL26 (UniProt Q96S19)
inactive: dasatinib 0.001 | [1] 0.032 | quisinostat 0.011 | [2] -0.011 | [6] -0.022 | [3] 0.029 | [4] 0.097 | vorinostat -0.01 | silmitasertib 0.03 | [5] 0.074 | entospletinib 0.019

MFHAS1 (UniProt Q9Y4C4)
inactive: dasatinib -0.135 | [1] -0.061 | quisinostat -0.121 | [2] 0.11 | [6] -0.344 | [3] -0.026 | [4] 0.058 | vorinostat 0.135 | silmitasertib -0.008 | [5] 0.021

METTL23 (UniProt Q86XA0)
inactive: nilotinib -0.092 | [7] -0.141 | [8] -0.08 | tipifarnib 0.07 | [6] -0.027 | [4] 0.177 | entospletinib 0.046

MBTD1 (UniProt Q05BQ5)
inactive: quisinostat -0.048 | [2] 0.088 | [5] 0.095

METAP2 isoform 2 (UniProt P50579)
inactive: nilotinib 0.042 | [7] -0.218 | [8] -0.078 | tipifarnib 0.068 | entospletinib 0.037

MBNL2 (UniProt Q5VZF2)
inactive: quisinostat -0.013 | [2] 0.022 | [6] -0.108 | [3] -0.128 | [4] -0.004 | vorinostat -0.053 | silmitasertib -0.063 | [5] 0.01 | entospletinib -0.032

MBTPS2 (UniProt O43462)
inactive: quisinostat -0.211 | [2] -0.064 | [5] 0.084 | entospletinib 0.065

Reference: the supplement of paper PMC10849652
